Measurements published in patent publication US20230220104A1.
Changes are numbered by the printed parent chain. These are yes or no findings as the source states them, for the method shown. Some entries that bind do so weakly or less than the wild type.

Amino acid sequences for entries named in this document (tags omitted). A change or cut given only in a name is not applied to a line headed by its entry. Chains listed by the source or under a name are the forms on record and can include a tag or linker.
rhesus CD73 on transfected HEK293T cells (F7GPZ7, form named): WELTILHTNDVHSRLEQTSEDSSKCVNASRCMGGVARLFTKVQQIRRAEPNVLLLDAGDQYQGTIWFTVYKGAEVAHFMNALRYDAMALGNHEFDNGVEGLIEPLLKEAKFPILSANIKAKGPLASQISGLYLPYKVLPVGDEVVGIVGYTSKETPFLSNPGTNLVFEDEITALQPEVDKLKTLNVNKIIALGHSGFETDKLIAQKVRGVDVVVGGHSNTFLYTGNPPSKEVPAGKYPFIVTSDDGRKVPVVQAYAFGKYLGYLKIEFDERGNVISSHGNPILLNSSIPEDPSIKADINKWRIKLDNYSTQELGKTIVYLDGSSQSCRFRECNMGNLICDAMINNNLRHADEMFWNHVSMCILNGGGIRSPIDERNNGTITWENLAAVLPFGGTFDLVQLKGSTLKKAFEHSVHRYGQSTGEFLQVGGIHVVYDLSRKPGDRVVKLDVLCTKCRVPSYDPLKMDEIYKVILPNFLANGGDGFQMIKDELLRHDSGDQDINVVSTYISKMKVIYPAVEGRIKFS

Tests used:
[1] = target: human CD73 on cells (H322, MDA-MB-231, HT-144, T cells, CD73-transfected HEK293T) (human) (UniProt P21589); experiment: flow cytometry on H322 cells (endogenous CD73), PE channel
[2] = target: human CD73 on cells (H322, MDA-MB-231, HT-144, T cells, CD73-transfected HEK293T) (human) (UniProt P21589); experiment: flow cytometry, H322 cells endogenously expressing CD73
[3] = target: human CD73 on cells (H322, MDA-MB-231, HT-144, T cells, CD73-transfected HEK293T) (human) (UniProt P21589); experiment: flow cytometry on HEK-293T cells forcibly expressing human CD73, fluorescently labeled secondary antibody, PE channel
[4] = target: human CD73 on cells (H322, MDA-MB-231, HT-144, T cells, CD73-transfected HEK293T) (human) (UniProt P21589); experiment: flow cytometry on MDA-MB-231 cells (endogenous CD73), fluorescently labeled secondary antibody, PE channel
[5] = target: T1, CD73 recombinant antigen (self-prepared product) (Homo sapiens (Human)) (UniProt P21589); experiment: antigen-immobilized ELISA and function screening (Example 1)
T1 sequence: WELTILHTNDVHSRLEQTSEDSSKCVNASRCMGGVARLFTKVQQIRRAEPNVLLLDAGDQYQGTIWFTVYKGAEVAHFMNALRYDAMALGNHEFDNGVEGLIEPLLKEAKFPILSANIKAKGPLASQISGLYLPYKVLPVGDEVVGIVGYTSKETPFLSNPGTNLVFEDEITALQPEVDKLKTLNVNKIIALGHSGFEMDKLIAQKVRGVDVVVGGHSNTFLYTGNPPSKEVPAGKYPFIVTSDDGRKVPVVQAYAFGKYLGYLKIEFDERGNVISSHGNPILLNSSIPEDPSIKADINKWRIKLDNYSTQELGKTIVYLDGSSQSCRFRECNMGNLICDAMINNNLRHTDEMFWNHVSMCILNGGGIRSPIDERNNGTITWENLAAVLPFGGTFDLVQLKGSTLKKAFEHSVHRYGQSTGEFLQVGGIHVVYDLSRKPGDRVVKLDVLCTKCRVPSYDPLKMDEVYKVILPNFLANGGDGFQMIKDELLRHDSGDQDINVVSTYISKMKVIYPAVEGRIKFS

[6] = target: human CD73 on cells (H322, MDA-MB-231, HT-144, T cells, CD73-transfected HEK293T) (human) (UniProt P21589); experiment: flow cytometry on H322 cells (endogenous CD73), fluorescently labeled secondary antibody, PE channel
[7] = target: T2, rhesus CD73 on transfected HEK293T cells (rhesus) (UniProt F7GPZ7); experiment: flow cytometry, HEK293T cells expressing the rhesus CD73 gene (reference)
T2 sequence: T1 sequence with M199T, T350A, V466I

[8] = target: T2, rhesus CD73 on transfected HEK293T cells (rhesus); experiment: flow cytometry on HEK293T cells expressing the rhesus CD73 gene (same amino acid sequence as cynomolgus CD73), APC channel
[9] = target: T2, rhesus CD73 on transfected HEK293T cells (rhesus); experiment: flow cytometry, HEK293T cells expressing the rhesus CD73 gene

B1: 002_6_h7 (antibody, V domains shown)
VH: EVQLVESGAEVKKPGASVKVSCKASGYTFTDSNMDWVRQAPGQGLEWMGDINPNNGGTIYNQKFKGRVTMTRDTSINTAYMELSRLRSDDTAVYYCAMTNWDYAMDYWGQGTTVTVSS
VL: DIVMTQSPSSLSASVGDRVTITCKASQDINSQLSWYQQKPGKAPKLLIYRANRLIDGVPSRFSGSGSGTDFTLTISSLQPEDFATYYCQQYDVFPRTFGQGTKVEIK
[1]
  binding: binds
[2]
  binding: binds

B2: 008_m antibody (antibody, V domains shown)
VH: QVQLKQSGAELVKPGASVKLSCKASGYTFTSYWMHWVKQRPGQGPEWIGEINPSNGRTNYNEKFKNRATLTVDKSSSTAYMQLSRLTSEDSAVYYCARRGTSGNYFDYWGQGTTLTVSS
VL: DIQMTQSPSSMYASLGERVTITCKASQDINTYLSWFQQKPGKSPKTLIYRANRLVDGVPSRFSGSGSGEDYSLTISSLEYEDMGIYYCLQYDEFPYTFGGGTRLEIK
[3]
  binding: binds
[4]
  binding: binds
[5]
  binding: binds
[6]
  binding: binds

B3: 002_6_h4 antibody (antibody, V domains shown)
VH: QVQMKQSAAEVRKPGASVKVSCKASGYTFTDSNMDWVRQAPGQGLEWMGDINPNNGGTIYNQKFKGRVTMTIDTSRSTAYMELRSLRSDDTAVYYCARTNWDYAMDYWGQGTTVTVSS
VL: B1 VL with V3Q, S10F, L46T, P80Y, F83M, Q89L, Q100G, V104L
[7]
  binding: binds
[8]
  binding: binds

B4: 006_hKB antibody (antibody, V domains shown)
VH: QVQLLQSGAEVKKPGESVKISCKASGYTFTSYWMHWVKQRPGQGLEWIGEINPSNARTNYNENFKSRFTITVDKSTSTAYMQFSRLRSDDTAVYYCARRGTSGNYFDFWGQGTMLTVSS
VL: B2 VL with M11L, Y12S, E17Q, S43P, E79Q, Y80S, M83F, I85V, G100P
[9]
  binding: binds
[8]
  binding: binds

B5: 002_m antibody (antibody, V domains shown)
VH: QVQMKQSGPELVKPGASVKIPCKASGYTFTDCNMDWVKQSHGESLEWIGDINPNNGGTIYNQKFKGKVTLTIDKSSSTAYMELRSLTSEDTAVYYCARTNWDYAMDYWGQGTSVTVSS
VL: B2 VL with T31S, Y32N, V55I, E69Q, E93V, Y96R, R103K, I106L
[5]
  binding: binds

B6: 005_m antibody (antibody, V domains shown)
VH: DVQLVESGPGLVAPSQSLSITCTVSGFSLTSYGVSWVRQPPGKGLEWLGVIWGDGSTNYHSALISRLSISKDNSKSQVFLKLNSLQTDDTATYYCAKTNIFYDYDWYLDVWGAGTTVTVSS
VL: DIVMTQAPLSLPVSLGDQASISCRSSQSLVHSNGNTYLHWYLQKPGQSPKLLIYKVSNRFSGVPDRFSGSGSGTDFTLKISRVEAEDLGVYFCSHSTHVPWTFGGGTKLELK
[5]
  binding: binds

B7: 006_m antibody (antibody, V domains shown)
VH: QVQLQQPGAELVKPGVSVKLSCKASGYTFTSYWMHWVKQRPGQGPEWIGEINPSNARTNYNENFKSKATLTVDKSSTTAYMHFSRLTSEDSAVYYCARRGTSGNYFDFWGQGTTVTVSS
VL: B2 VL
[5]
  binding: binds

B8: 007_m antibody (antibody, V domains shown)
VH: QVQLQQPGAELVRPGASVKLSCKASGYTFTSYWMNWVKQRPEQGLEWIGKIDPYDSETHYNQKFKDKAILTVDKSSSTAFMQLSSLTSEDSAVYYCARIRYGTFDYWGQGTTLTVSS
VL: B2 VL with Q3V, T31N, R53I, R61G, E69Q
[5]
  binding: binds

B9: 009_m antibody (antibody, V domains shown)
VH: B8 VH with P7S, Q43P, K50R, T58A, F80Y, A97T
VL: DIVLTQSPSSMYASLGERVTITCKASQDINSYLSWFQQKPGKSPKTLIYRSNSLVDGVPSRFSGSGSGQDYSLTISSLEYEDMGSYYCLQYDEFPYTFGGGTRLEIKR
[5]
  binding: binds
